# These are yes or no findings as the source states them, for the method shown. Binding seen in cells or lysates may run through a third protein. Some binding calls cover weakened binding; strength is not graded here. For some assays here: Where a sequence is shown, tags or fusion partners need not be part of it.
# T1: GFP-tagged mAsxl1 C-terminus (aa 1193-1514) (mouse) (UniProt P59598)
# T1 sequence: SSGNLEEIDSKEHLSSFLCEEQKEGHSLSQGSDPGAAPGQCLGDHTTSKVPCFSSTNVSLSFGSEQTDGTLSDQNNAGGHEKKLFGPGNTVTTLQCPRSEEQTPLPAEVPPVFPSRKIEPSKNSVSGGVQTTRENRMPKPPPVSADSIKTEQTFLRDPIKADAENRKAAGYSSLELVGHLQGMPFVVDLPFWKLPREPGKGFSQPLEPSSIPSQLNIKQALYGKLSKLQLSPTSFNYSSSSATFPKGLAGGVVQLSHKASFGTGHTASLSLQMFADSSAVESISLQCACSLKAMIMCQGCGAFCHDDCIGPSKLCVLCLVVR
# How the values were obtained:
# [1] = target: Additional sex combs-like 1 (Asxl1), endogenous (mouse (endogenous in N2a)) (UniProt P59598); test: co-IP; endogenous proteins in N2a neuroblastoma cell lysate; immunocomplexes on protein A/G-agarose, Western blot
# [2] = target: T1, GFP-tagged mAsxl1 C-terminus (aa 1193-1514) (mouse); test: co-IP; domain mapping with GFP-tagged mAsxl1 forms and Flag-tagged hLHX2 forms; HEK293 cell lysates (1-2 mg), anti-Flag or anti-GFP, protein A/G-agarose, Western blot
binding [1],binding [2],Binder
binds,–,"LIM homeobox 2 (Lhx2), endogenous (protein, UniProt Q9Z0S2 1-406) MLFHSLSGPEVHGVIDEMDRRAKSEAPAISSAIDRGDTETTMPSISSDRAALCAGCGGKISDRYYLLAVDKQWHMRCLKCCECKLNLESELTCFSKDGSIYCKEDYYRRFSVQRCARCHLGISASEMVMRARDLVYHLNCFTCTTCNKMLTTGDHFGMKDSLVYCRLHFEALLQGEYPAHFNHADVAAAAAAAAAAKSAGLGSAGANPLGLPYYNGVGTVQKGRPRKRKSPGPGADLAAYNAALSCNENDAEHLDRDQPYPSSQKTKRMRTSFKHHQLRTMKSYFAINHNPDAKDLKQLAQKTGLTKRVLQVWFQNARAKFRRNLLRQENTGVDKTSDATLQTGTPSGPASELSNASLSPSSTPTTLTDLTSPTLPTVTSVLTSVPGNLEGHEPHSPSQTTLTNLF"
–,binds,"Flag-tagged hLhx2 LIM domain (aa 1-174) (domain or fragment, UniProt P50458 1-174) MLFHSLSGPEVHGVIDEMDRRAKSEAPAISSAIDRGDTETTMPSISSDRAALCAGCGGKISDRYYLLAVDKQWHMRCLKCCECKLNLESELTCFSKDGSIYCKEDYYRRFSVQRCARCHLGISASEMVMRARDLVYHLNCFTCTTCNKMLTTGDHFGMKDSLVYCRLHFEALLQ"
